Test results published in patent US20050201975A1.
These are yes or no findings as the source states them, for the method shown. Some results given as binding are weak or reduced against the parent protein; the word gives no strength.

The chains behind the UniProt entries cited, without tags or fusion partners.
UniProt Q06330: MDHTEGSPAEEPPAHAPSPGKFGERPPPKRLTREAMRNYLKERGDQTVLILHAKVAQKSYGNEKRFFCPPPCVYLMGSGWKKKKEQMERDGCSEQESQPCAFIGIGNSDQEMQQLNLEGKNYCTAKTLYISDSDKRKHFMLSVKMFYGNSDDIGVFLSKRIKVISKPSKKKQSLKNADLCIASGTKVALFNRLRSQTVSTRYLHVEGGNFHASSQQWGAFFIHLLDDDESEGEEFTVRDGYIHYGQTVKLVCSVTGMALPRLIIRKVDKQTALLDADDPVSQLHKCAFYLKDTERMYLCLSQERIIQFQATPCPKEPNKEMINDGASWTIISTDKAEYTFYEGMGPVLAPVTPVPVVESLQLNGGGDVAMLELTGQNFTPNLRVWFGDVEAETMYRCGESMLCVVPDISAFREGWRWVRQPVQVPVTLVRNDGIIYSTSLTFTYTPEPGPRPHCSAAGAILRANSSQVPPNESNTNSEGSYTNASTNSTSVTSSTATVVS

Assays:
[1] = molecular target: GAL4BD-N1 fragment (1762-1829) fusion protein (human (Notch1 part)); experiment: yeast two-hybrid screen of human spleen cDNA library, AH109pLOR67
[2] = molecular target: GAL4BD-N1 fragment (1762-1829) fusion protein (human (Notch1 part)); experiment: yeast two-hybrid retransformation, -WLH, -WLHA, -WLHAXαGAL plates and LacZ filter assay

binding [1]: binds
binding [2]: binds
Substance: GAL4AD fusion protein encoded by plasmid 8-2 (CBF1 fragment) (from UniProt Q06330 1-500)
